Hit rate of the full screen: of about 360,000 compounds, about 7,500 (2.1%) were called active. Inconclusive results, whose numbers are uncertain, are shown with a selection of clear calls. Calls come from the whole dose curve; as a rule, active = well fitted inhibition curve with a large enough effect; inconclusive = small, poorly fitted or top-dose-only effect, or effect the other way; inactive = flat fitted curve, though single readings scatter. Where the call is inconclusive, the potency comes from a doubtful curve fit.
Assay: Nrf2 qHTS screen for inhibitors; note: nearly all actives have a fitted effect of over 60% in size
Settings: A549 ARE-Fluc reporter, luciferase luminescence, 18-24 h; series mostly up to 46 µM
Outline: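 Reporter: ARE-Fluc in A549. Exposure: 18-24 h, 37 °C, 5% CO2, 5% FBS OPTI-MEM. Readouts: fluorescent cytotoxicity (CellTiter-Fluor), then luminescent Nrf2 signal after BugLite.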
Potency is the fitted concentration of half-maximal effect.

Row | Structure (SMILES) | Potency
1 | OC(CNCCc1ccccc1)COc1ccc(OCC(O)CNCCc2ccccc2)cc1 (centres undefined) | inactive
2 | CCCCn1c(N)c(N(CC(C)C)C(=O)c2cccc(S(=O)(=O)N3CCCCCC3)c2)c(=O)[nH]c1=O | inactive
3 | COc1ccccc1CNC(=O)COC(=O)c1c(C)nn(-c2ccccc2)c1Cl | inconclusive: 25.9 µM [falling, partial curve, poor fit]
4 | Cc1cc(N)n(-c2ccc(C)c(C)c2)n1 | inconclusive: 13 µM [activator, partial curve]
5 | O=C(Nc1ccccc1)c1ccc2ccccc2n1 | inconclusive: 10.3 µM [activator, partial curve]
6 | COc1ccc(-n2c(N)c(C(=O)NCc3ccco3)c3nc4ccccc4nc32)cc1 | inconclusive: 1.84 µM [falling, full curve]
7 | Cc1cc(S(=O)(=O)NCC(C)C)ccc1OCC(=O)NCc1ccco1 | inactive
8 | COc1cccc(NC(=O)c2c(N3CCCC3=O)c3cc(C)ccc3n2C)c1 | inconclusive: 29.1 µM [falling, single point]
9 | CN(C)c1ccc(N=Cc2nc(-c3ccccc3)oc2O)cc1 | inactive
10 | Cc1ccccc1-n1c(SCc2ccccn2)nc2n[nH]c(C)c2c1=N | inconclusive: 20.6 µM [falling, single point]
11 | Cc1ccc(NC(=O)C2CCCN2S(=O)(=O)c2ccc3c(c2)C(C)(C)C(=O)N3C)cc1 (centres undefined) | inconclusive: 29.1 µM [falling, single point]
12 | COc1ccc(-c2cc(OC)c3c(C)oc(C)c3c(=O)c2)cc1OC | inconclusive: 14.6 µM [falling, partial curve]
13 | COCCN(Cc1cc2cc(C)cc(C)c2nc1Cl)C(=O)Nc1ccccc1 | inactive
14 | Cc1cccc(N2CCN(C(=O)Cn3ncc4c([nH]c5ccccc54)c3=O)CC2C)c1 (centres undefined) | inactive
15 | CC1(C)Cc2c(ccc3ccccc23)/C(=C/C#N)N1 | inconclusive: 29.1 µM [falling, single point]
16 | CCOc1ccc(NC(=O)c2cc(C)nc3c2c(C)nn3-c2cccc(F)c2)cc1 | inconclusive: 23.1 µM [activator, partial curve, poor fit]
17 | COc1ccc(C2C(C(=O)N3CCOCC3)=C(C)NC3=C2C(=O)CC(C)(C)C3)c(OC)c1 (centres undefined) | inactive
18 | COc1ccc(-c2c(C(F)(F)F)nn(C)c2NC(=O)c2cccnc2)cc1 | inconclusive: 7.31 µM [falling, single point]
19 | COC(=O)c1ccccc1NC(=O)COC(=O)c1ccccc1N=Nc1ccc(N(C)C)cc1 | inconclusive: 29.1 µM [activator, single point]
20 | COc1cccc2sc(NN)nc12 | inactive
21 | N#C/C(=C\c1c(Cl)cccc1Cl)c1nc2ccccc2o1 | inactive
22 | Cc1ccc(C)c(N=Cc2ccc(-c3ccc([N+](=O)[O-])cc3)o2)c1 | inconclusive: 23.1 µM [falling, partial curve, poor fit]

Row | Structure (SMILES) | Potency
23 | O=C(Cc1cccc(NC(=O)C2CCCN(C(=O)CCc3ccccc3)C2)c1)Nc1ccc(C(=O)N2CCCCC2)cc1 (centres undefined) | inconclusive: 32.6 µM [falling, partial curve, poor fit]
24 | COc1cc(Cl)ccc1OCc1cc(C(=O)N[C@H]2CCCCNC2=O)no1 | inconclusive: 1.84 µM [activator, partial curve, poor fit]
25 | Cc1ccc(S(=O)(=O)c2nc(-c3ccco3)oc2SCc2ccc(F)cc2)cc1 | inconclusive: 3.66 µM [falling, partial curve, poor fit]
26 | COC(=O)c1c(NC(NC(=O)C(C)(C)C)C(Cl)(Cl)Cl)sc2c1CCC2 (centres undefined) | inconclusive: 29.1 µM [falling, single point]
27 | O=C(Nc1ccc2[nH]ncc2c1)c1cccc(F)c1 | inconclusive: 18.4 µM [activator, partial curve]
28 | COC(=O)c1ccc(-c2sc3nc(N4CCOCC4)c4c(c3c2N)CCCC4)o1 | inconclusive: 6.51 µM [falling, full curve, poor fit]
29 | Cc1cc(Nc2ccc(Br)cc2)nc2ccccc12 | inconclusive: 32.6 µM [activator, partial curve, poor fit]
30 | Nc1ccc(Br)cc1-c1nc2ccccc2[nH]c1=O | inconclusive: 20.6 µM [activator, partial curve, poor fit]
31 | Cc1ccccc1C1NC(=S)NC2=C1C(=O)CCC2 (centres undefined) | inactive
32 | O=C1CC(c2ccc(Cl)cc2)c2cc3c(cc2N1)OCCO3 (centres undefined) | inconclusive: 29.1 µM [falling, single point]
33 | CC(C)(C)c1cc(NCc2ccccn2)n2ncc(-c3ccc(Cl)cc3)c2n1 | inactive
34 | Cc1csc(NC(=O)c2ccc3nc[nH]c3c2)n1 | inconclusive: 0.82 µM [activator, partial curve, poor fit]
35 | CCOC(=O)c1ccc(NC(=O)C2(c3ccc(OC)cc3)CCOCC2)cc1 | inconclusive: 20.6 µM [falling, single point]
36 | O=c1c2c3c(sc2nc2n1CCCC2)CCCC3 | inconclusive: 20.6 µM [activator, single point]
37 | CCCCC(=O)Nc1c(C(=O)N2CCN(c3ccccc3)CC2)oc2ccccc12 | inconclusive: 23.1 µM [falling, single point]
38 | CCCSc1ncc(Cl)c(C(=O)Nc2scc(-c3ccc(C)cc3)c2C(=O)OCC)n1 | inactive
39 | c1ccc(Cn2nnnc2-c2ccco2)cc1 | inconclusive: 0.0731 µM [falling, full curve, poor fit]
40 | CCOC(=O)C1(CCOc2ccccc2)CCN(Cc2cc(OC)ccc2OC)CC1 | inactive
41 | Cc1ccnc(NC(=O)CCC(=O)N(CC(=O)NC(C)(C)C)c2ccc3c(c2)OCCO3)c1 | inactive
42 | CCOc1ccc(CCNC(=O)c2cccc(-n3c(C)nc4cccnc43)c2C)cc1 | inconclusive: 16.4 µM [falling, single point]
43 | CC1(c2nnc(-c3cccc(Cl)c3)o2)CC(c2ccc(Cl)cc2)=NO1 (centres undefined) | inactive
44 | CCOC(=O)C1CCCN(C(=O)c2cc3nc(-c4cccc(OC)c4)cc(C(F)(F)F)n3n2)C1 (centres undefined) | inconclusive: 32.6 µM [falling, single point]

Reprinted at random: 2 entries already listed
Row | Structure (SMILES) | Potency
6 | COc1ccc(-n2c(N)c(C(=O)NCc3ccco3)c3nc4ccccc4nc32)cc1 | inconclusive: 1.84 µM [falling, full curve]
12 | COc1ccc(-c2cc(OC)c3c(C)oc(C)c3c(=O)c2)cc1OC | inconclusive: 14.6 µM [falling, partial curve]

From PubChem BioAssay AID504444 (National Center for Advancing Translational Sciences (NCATS), 2011)
